Test results from article PMC5312278.
Results are given in words; binding and its absence hold for the method and conditions named. In cells and extracts the contact can be indirect. Some entries that bind do so weakly or less than the wild type.

By UniProt entry, the sequences of proteins in these tests, tags left out.
UniProt Q62940: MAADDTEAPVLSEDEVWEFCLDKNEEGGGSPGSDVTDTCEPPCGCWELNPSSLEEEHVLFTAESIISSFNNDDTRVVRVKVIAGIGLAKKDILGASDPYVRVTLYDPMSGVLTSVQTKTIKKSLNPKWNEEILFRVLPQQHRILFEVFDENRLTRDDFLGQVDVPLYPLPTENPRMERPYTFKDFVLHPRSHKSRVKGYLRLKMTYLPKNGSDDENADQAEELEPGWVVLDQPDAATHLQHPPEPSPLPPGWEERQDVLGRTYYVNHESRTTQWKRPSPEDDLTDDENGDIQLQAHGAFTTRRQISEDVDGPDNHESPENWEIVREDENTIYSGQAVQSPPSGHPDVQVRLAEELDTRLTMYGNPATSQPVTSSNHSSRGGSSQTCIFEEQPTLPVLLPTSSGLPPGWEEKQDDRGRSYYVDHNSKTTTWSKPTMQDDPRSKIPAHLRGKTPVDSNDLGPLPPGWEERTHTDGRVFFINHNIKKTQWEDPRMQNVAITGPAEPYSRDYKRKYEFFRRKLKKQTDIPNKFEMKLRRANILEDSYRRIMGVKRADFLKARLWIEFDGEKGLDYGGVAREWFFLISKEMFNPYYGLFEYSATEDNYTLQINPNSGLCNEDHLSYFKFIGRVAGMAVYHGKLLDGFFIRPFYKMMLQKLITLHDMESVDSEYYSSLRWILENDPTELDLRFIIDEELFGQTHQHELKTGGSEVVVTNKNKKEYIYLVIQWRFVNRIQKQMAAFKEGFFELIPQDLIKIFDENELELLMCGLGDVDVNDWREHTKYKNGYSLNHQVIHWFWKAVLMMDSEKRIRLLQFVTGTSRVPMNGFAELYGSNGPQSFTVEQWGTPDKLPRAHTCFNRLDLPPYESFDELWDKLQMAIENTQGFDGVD

Target: T1, RTP801 (endogenous, NGF-differentiated PC12 cells) (rat (endogenous in PC12)) (UniProt Q8VHZ9)
T1 sequence: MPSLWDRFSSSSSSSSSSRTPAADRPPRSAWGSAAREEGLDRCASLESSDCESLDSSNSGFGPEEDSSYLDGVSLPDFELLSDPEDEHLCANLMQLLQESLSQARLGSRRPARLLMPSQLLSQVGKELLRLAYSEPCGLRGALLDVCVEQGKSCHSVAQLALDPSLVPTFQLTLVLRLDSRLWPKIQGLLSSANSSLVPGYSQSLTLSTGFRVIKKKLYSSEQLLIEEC
Experiment: co-IP; endogenous proteins in NGF-differentiated PC12 cells; 1 μM epoxomicin for 2 hours, then the cross-linker DSP at 4°C for 2 hours before harvesting; RTP801 immunoprecipitated with anti-RTP801 antibody on protein A-agarose; washed with CHAPS buffer; blot with anti-NEDD4

binding: binds
Substance: NEDD4 (endogenous, NGF-differentiated PC12 cells) (from UniProt Q62940 1-887) (enzyme)
